# From the supplement of paper PMC12823440, “Inhibitors supercharge kinase turnover through native proteolytic circuits” (Nature, 2025)
# Amino acid sequences for entries named in this document (tags omitted). A change or cut given only in a name is not applied to a line headed by its entry.
# UniProt Q00526: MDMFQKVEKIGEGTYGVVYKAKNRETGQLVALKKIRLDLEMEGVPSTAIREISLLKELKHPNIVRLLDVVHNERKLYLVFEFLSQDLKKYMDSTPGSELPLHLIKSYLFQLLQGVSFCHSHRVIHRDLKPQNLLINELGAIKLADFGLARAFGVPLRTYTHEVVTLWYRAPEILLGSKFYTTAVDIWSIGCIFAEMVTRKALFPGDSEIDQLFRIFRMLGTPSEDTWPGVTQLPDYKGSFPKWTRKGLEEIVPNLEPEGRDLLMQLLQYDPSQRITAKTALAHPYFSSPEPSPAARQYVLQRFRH
# Where a name gives a salt, the structure may show the parent alone. The list shows a part of the results. The calls rarely recur for the same compound in another form.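 In K562 cells expressing nanoluciferase-fused kinases, luminescence was recorded at 4 h intervals between 2 and 18 h, normalized as percent of control with DMSO at 100% and a positive control at 0%. A significant (2 sigma) signal drop marks a time point as decreased. The authors' rule for a hit is not shown and takes in more than the number of time points.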
# Molecular target: CDK3 (UniProt Q00526)
# Assay: number of time points (of 5) at which kinase-Nluc abundance scored as decreased, DMSO-normalised (count); higher = more persistent destabilization
# Details: K562; 2-18 h
row,Structure (SMILES),number of time points
1,C[C@@H]1CCN(C(=O)CC#N)C[C@@H]1N(C)c1ncnc2[nH]ccc12 [Tofacitinib] (10 µM),0
2,CC#CC(=O)N1CC[C@@H](n2c(=O)n(-c3ccc(Oc4ccccc4)cc3)c3c(N)ncnc32)C1 [Tirabrutinib (hydrochloride)] (10 µM),0
3,Cc1ccc(C(=O)Nc2ccc(Oc3cc4cnn(C)c4cc3-c3cn[nH]c3)c(F)c2)c(=O)n1-c1ccc(F)cc1 [Merestinib] (2.5 µM),0
4,Cc1cc(Nc2ncnc3ccc(NC4=NC(C)(C)CO4)cc23)ccc1Oc1ccn2ncnc2c1 [Tucatinib (hemiethanolate)] (2.5 µM),0
5,C[C@@]1(c2ncncc2F)NC(=O)c2cc(-c3cn[nH]c3)ccc21 (10 µM),0
6,COc1cc(Nc2ncc(F)c(Nc3ccc4c(n3)NC(=O)C(C)(C)O4)n2)cc(OC)c1OC (10 µM),0
7,Cc1cc2ncc(-c3ccc(O)c(O)c3)nc2cc1C [Tyrphostin AG1433] (10 µM),0
8,C=CC(=O)Nc1cccc(Nc2nc(Nc3ccc(N4CCN(C(C)=O)CC4)cc3OC)ncc2C(F)(F)F)c1 [Rociletinib hydrobromide] (10 µM),0
9,Cc1cc(Nc2ncnc3ccc(NC4=NC(C)(C)CO4)cc23)ccc1Oc1ccn2ncnc2c1 [Tucatinib] (2.5 µM),0
10,CCc1cc2c(cc1N1CCC(N3CCOCC3)CC1)C(C)(C)c1[nH]c3cc(C#N)ccc3c1C2=O [Alectinib (Hydrochloride)] (2 µM),0
11,Cn1nccc1Nc1nccc(-c2ccn([C@H](CO)c3ccc(Cl)c(F)c3)c(=O)c2)n1 [Ravoxertinib hydrochloride] (10 µM),0
12,COc1cc2c(N3CCN(C(=O)Nc4ccc(OC(C)C)cc4)CC3)ncnc2cc1OCCCN1CCCCC1 [Tandutinib] (10 µM),0
13,CC#CC(=O)N1CC[C@@H](n2c(=O)n(-c3ccc(Oc4ccccc4)cc3)c3c(N)ncnc32)C1 [Tirabrutinib] (10 µM),0
14,C=CC(=O)Nc1cccc(Nc2nc(Nc3ccc(N4CCN(C(C)=O)CC4)cc3OC)ncc2C(F)(F)F)c1 [Rociletinib] (10 µM),0
15,COc1cc(Nc2ncc(F)c(Nc3ccc4c(n3)N(COP(=O)(O)O)C(=O)C(C)(C)O4)n2)cc(OC)c1OC [Fostamatinib Disodium] (10 µM),0
16,COc1cc2c(N3CCN(C(=O)Nc4ccc(OC(C)C)cc4)CC3)ncnc2cc1OCCCN1CCCCC1 [Tandutinib (hydrochloride)] (10 µM),0
17,COc1cc(Nc2ncc(F)c(Nc3ccc4c(n3)N(COP(=O)(O)O)C(=O)C(C)(C)O4)n2)cc(OC)c1OC [Fostamatinib (disodium hexahydrate)] (10 µM),0
18,COc1cc2nccc(Oc3ccc(NC(=O)NC4CC4)c(Cl)c3)c2cc1C(N)=O [Lenvatinib (mesylate)] (10 µM),0
19,Oc1ccc(Nc2nc(-c3ccc(Cl)cc3)cs2)cc1 (10 µM),0
20,NC(=O)c1nc(Nc2ccccc2)sc1NC(=O)C1CCCCC1 (10 µM),0

# Rewritten bar-delimited: entries from further up
row | Structure (SMILES) | number of time points
11 | Cn1nccc1Nc1nccc(-c2ccn([C@H](CO)c3ccc(Cl)c(F)c3)c(=O)c2)n1 [Ravoxertinib hydrochloride] (10 µM) | 0
17 | COc1cc(Nc2ncc(F)c(Nc3ccc4c(n3)N(COP(=O)(O)O)C(=O)C(C)(C)O4)n2)cc(OC)c1OC [Fostamatinib (disodium hexahydrate)] (10 µM) | 0

# The list continues:

row,Structure (SMILES),number of time points
1,CC1=C(C(=O)O)N2C(=O)[C@@H](NC(=O)[C@H](N)C3=CCC=CC3)[C@H]2SC1 [Cephradine] (10 µM),0
2,Cc1ccc(C(=O)Nc2ccc(Oc3cc4cnn(C)c4cc3-c3cn[nH]c3)c(F)c2)c(=O)n1-c1ccc(F)cc1 [Merestinib dihydrochloride] (2.5 µM),0
3,Cc1ccc2nc(NCCN)c3ncc(C)n3c2c1 (2.5 µM),0
4,CC(=O)NC1CC(n2cnc(NC(=O)Cc3ccc4ccccc4c3)c2)C1 (centres undefined) (10 µM),0
5,COc1cc2nccc(Oc3ccc(NC(=O)NC4CC4)c(Cl)c3)c2cc1C(N)=O [Lenvatinib] (10 µM),0
6,Cn1cnc2c(F)c(Nc3ccc(Br)cc3Cl)c(C(=O)NOCCO)cc21 [Selumetinib (sulfate)] (10 µM),0
7,CCN1CCN(Cc2ccc(Nc3ncc(F)c(-c4cc(F)c5nc(C)n(C(C)C)c5c4)n3)nc2)CC1 [Abemaciclib] (2 µM),0
8,C[C@@H]1CCN(C(=O)CC#N)C[C@@H]1N(C)c1ncnc2[nH]ccc12 [Tofacitinib (citrate)] (10 µM),0
9,Cn1nccc1Nc1nccc(-c2ccn([C@H](CO)c3ccc(Cl)c(F)c3)c(=O)c2)n1 [Ravoxertinib] (10 µM),0
10,COc1cc(Nc2ncc(F)c(Nc3ccc4c(n3)NC(=O)C(C)(C)O4)n2)cc(OC)c1OC [R406 (free base)] (10 µM),0
11,S=C(SSC(=S)N1CCOCC1)N1CCOCC1 (10 µM),0
12,CC1CCc2c(cc(Br)c(F)c2Br)N1C=O (centres undefined) (10 µM),0
13,Cc1[nH]c(/C=C2\C(=O)Nc3ccccc32)c(C)c1CCC(=O)O [(Z)-Orantinib] (10 µM),0
14,CCN1CCN(Cc2ccc(Nc3ncc(F)c(-c4cc(F)c5nc(C)n(C(C)C)c5c4)n3)nc2)CC1 [Abemaciclib (methanesulfonate)] (10 µM),0
15,Cn1cnc2c(F)c(Nc3ccc(Br)cc3Cl)c(C(=O)NOCCO)cc21 [Selumetinib] (10 µM),0
16,CCc1cc2c(cc1N1CCC(N3CCOCC3)CC1)C(C)(C)c1[nH]c3cc(C#N)ccc3c1C2=O [Alectinib] (10 µM),0
17,C=C(CC[C@@H](C(=O)O)[C@H]1[C@H](O)C[C@@]2(C)C3=C(CC[C@]12C)[C@@]1(C)CC[C@H](OC(C)=O)C(C)(C)[C@@H]1CC3)C(C)C [Pachymic acid] (10 µM),0
18,Cc1[nH]c(/C=C2\C(=O)Nc3ccccc32)c(C)c1CCC(=O)O [Orantinib] (10 µM),0
19,C=CC(=O)Nc1ccc(CN2C(=O)N(c3cc(OC)cc(OC)c3)Cc3cnc(Nc4ccc(N5CCN(C)CC5)cc4)nc32)cc1 (2.5 µM),0
